# In publication PMC6135694:
# Amino acid sequences for entries named in this document (tags omitted). Residues count along the entry.
# UniProt P40763, 127-688: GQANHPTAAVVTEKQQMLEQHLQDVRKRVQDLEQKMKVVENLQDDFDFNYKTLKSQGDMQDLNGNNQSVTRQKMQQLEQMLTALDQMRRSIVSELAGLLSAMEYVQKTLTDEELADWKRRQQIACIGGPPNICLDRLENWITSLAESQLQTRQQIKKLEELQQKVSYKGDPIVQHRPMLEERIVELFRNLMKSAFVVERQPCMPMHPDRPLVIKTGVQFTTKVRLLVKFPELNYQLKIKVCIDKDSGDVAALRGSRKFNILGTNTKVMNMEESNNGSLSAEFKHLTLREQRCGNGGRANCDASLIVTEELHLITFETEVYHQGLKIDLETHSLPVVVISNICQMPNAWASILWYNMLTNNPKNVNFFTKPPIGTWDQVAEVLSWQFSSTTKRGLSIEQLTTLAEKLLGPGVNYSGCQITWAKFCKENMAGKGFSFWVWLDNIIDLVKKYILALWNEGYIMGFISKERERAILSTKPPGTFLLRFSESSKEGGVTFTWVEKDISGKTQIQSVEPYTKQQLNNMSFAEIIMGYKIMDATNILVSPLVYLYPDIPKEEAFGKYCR
# Biological target: YFP-STAT3 127-688 (UniProt P40763)
# Assay: PEMSA (EMSA with YFP-protein fluorescence)
# Conditions: 6 uM DNA, 0.8 uM protein, 24 hr, 4 C, PEMSA: buffer with 0.2 mg/ml BSA and 8% glycerol, 5% native gel, recombinant protein, residues 127-688, protein details: YFP fusion (N-terminal by name)
sequence,measurement,value
ATTTCCCGTAAA (double strand) [unlabelled consensus DNA 12-mer],binding result,binds

# Construct, isoform or probe ends are uncertain for at least one entry. At least one verdict was read from the data and is not stated in words by the source.
